Assay results from paper PMC12670160, “A drug-repurposing screen of FDA- and EMA-approved drugs identifies two NF-κB inhibitors active against eumycetoma” (Journal of Antimicrobial Chemotherapy, 2025).
Where a name gives a salt, the structure may show the parent alone. Hit rate of the full screen: of about 5,300 compounds, about 130 (2.5%) showed an effect of 50% or more. Some of the results follow.

Each compound was assayed on M. mycetomatis strain mm55. Settings: primary screen, metabolic activity vs growth control; 96 h, 2 µM; inhibitor.
In the case of N#CCNC(=O)c1ccc(-c2ccnc(Nc3ccc(N4CCOCC4)cc3)n2)cc1 [ONC0004993, momelotinib cyt387], the “% viability” value was 102.1%.
In the case of COC(=O)C1=C(C)NC(C)=C([N+](=O)[O-])[C@H]1c1ccccc1C(F)(F)F [ONC0001649, bayk8644s], the “% viability” value was 97.3%.
In the case of CS(=O)(=O)OCCCCOS(C)(=O)=O [ONC0003245, busulfan], the “% viability” value was 72.69%.
With CCCCCCCCC(=O)NCc1cc(OC)c(O)cc1I [ONC0002482, 6iodonordihydrocapsaicin] the “% viability” value was 59.24%.
In the case of O=C(/C=C/c1ccc(O)cc1)c1ccc(O)cc1O [ONC0005030, isoliquiritigenin], the “% viability” value was 109.3%.
For N#Cc1ccc(-c2csc(NN=C3CCCC3)n2)cc1 [ONC0001251, remodelin], the “% viability” value was 96.62%.
Cc1c(NC(=O)c2cccnc2)c(=O)n(-c2ccccc2)n1C [ONC0002863, nifenazone] was tested, and the “% viability” value was 118%.
For N[C@@H](Cn1oc(=O)[nH]c1=O)C(=O)O [ONC0003612, lquisqualicacid], the “% viability” value was 65.05%.
COCCOCCOc1ccc(C2=N[C@@](C)(C(=O)O)CS2)c(O)c1 [ONC0001255, sp420] was tested, and the “% viability” value was 62.06%.
With CN1CCN(CCCCN2C(=O)CN(/N=C/c3ccc(-c4ccc(Cl)cc4)o3)C2=O)CC1 [ONC0001074, azimilide dihydrochloride] the “% viability” value was 80.91%.
In the case of CC[C@@H]1C(=O)OC[C@@H]1Cc1cncn1C [ONC0000470, pilocarpine nitrate], the “% viability” value was 105.7%.
For CN(C)C(=O)c1ccc(S(=O)(=O)c2ccc(NC(=O)C(C)(O)C(F)(F)F)c(Cl)c2)cc1 (stereo not shown) [ONC0005136, azd7545], the “% viability” value was 97.4%.
For O=c1c(-n2ccnn2)c[nH]n1-c1cc(N2CCOCC2)ncn1 [ONC0000977, molidustat], the “% viability” value was 87.14%.
For CN1CCc2c(c3ccccc3n2Cc2ccc(C(=O)NO)cc2)C1 [ONC0005225, tubastatin a hydrochloride], the “% viability” value was 130.4%.
For C=C(C)[C@@H]1CC[C@]2(C(=O)O)CC[C@]3(C)[C@H](CC[C@@H]4[C@@]5(C)CC[C@H](OC(=O)CC(C)(C)C(=O)O)C(C)(C)[C@@H]5CC[C@]43C)[C@@H]12 [ONC0002104, bevirimat], the “% viability” value was 64.85%.
With Cc1cnc(-c2cc(N3CCN(C(=O)CCS(C)(=O)=O)CC3)ncc2Cl)c(C)c1 [ONC0005099, pf5274857] the “% viability” value was 101%.
In the case of Cc1c(CN2CCN(C(=O)[C@H](C)O)CC2)sc2c(N3CCOCC3)nc(-c3cnc(N)nc3)nc12 [ONC0005040, apitolisib gdc0980 rg7422], the “% viability” value was 91.34%.
With CN1C(=O)CC[C@H]1c1cccnc1 [ONC0004108, cotinine] the “% viability” value was 114.3%.
In the case of CCn1c(=O)[nH]c2cc(Cl)c(Cl)cc21 [ONC0002537, dcebio], the “% viability” value was 73.52%.
O=C(O)C(=O)Cc1c[nH]c2ccccc12 [ONC0005628, indole3pyrubate] was tested, and the “% viability” value was 60.98%.
With CC(COc1ccccc1)NC(C)[C@H](O)c1ccc(O)cc1 (stereo partly shown) [ONC0000598, isoxsuprine hydrochloride] the “% viability” value was 84.27%.
With CC[C@H]1CN2CCC1C[C@@H]2[C@@H](O)c1ccnc2ccc(OC)cc12 (stereo partly shown) [ONC0003391, hydroquinidine] the “% viability” value was 61.36%.
For COc1cc2nccc(Oc3ccc(NC(=O)NC4CC4)c(Cl)c3)c2cc1C(N)=O [ONC0004715, e7080 lenvatinib], the “% viability” value was 108%.
Nc1ccn([C@@H]2O[C@@](CO)(CCl)[C@@H](O)[C@H]2F)c(=O)n1 [ONC0000939, als8112] was tested, and the “% viability” value was 44.91%.
For CCC(C)(Oc1ccc(C2(c3ccc(OC(C)(CC)C(=O)O)cc3)CCCCC2)cc1)C(=O)O (stereo not shown) [ONC0005256, clinofibrate], the “% viability” value was 121.9%.
With C[C@H](Cc1ccc(OCC(=O)O)cc1)NC[C@H](O)c1cccc(Cl)c1 [ONC0002502, brl37344] the “% viability” value was 65.77%.
For COc1ccccc1Oc1c(NS(=O)(=O)c2ccc(C)cn2)nc(-c2ccncc2)nc1OC [ONC0000736, avosentan], the “% viability” value was 87.73%.
For CN(C)/C=N/c1c(I)cc(I)c(CCC(=O)O)c1I [ONC0003787, iopodicacid], the “% viability” value was 59.4%.
O=C(Nc1cc(C(F)(F)F)cc(C(F)(F)F)c1)Nc1c(Br)cc(Br)cc1-c1nn[nH]n1 [ONC0001703, ns5806] was tested, and the “% viability” value was 58.83%.
For Nc1ncnc2c1ncn2[C@H]1O[C@@H](C(=O)N2CCN(CC(=O)Nc3cccc4c3CNC4=O)CC2)[C@H](O)[C@@H]1O [ONC0001619, eb47], the “% viability” value was 55.83%.
In the case of CC(C)C(=O)SCCCCC[C@H](NC(=O)OC(C)(C)C)C(=O)NC12CC3CC(CC(C3)C1)C2 [ONC0002528, tcshdac620b], the “% viability” value was 72.9%.
c1ccc2c(CC3=NCCN3)cccc2c1 [ONC0000371, naphazoline hydrochloride] was tested, and the “% viability” value was 72.12%.
In the case of CC(=O)OCC(=O)[C@@]12OC(C)(C)O[C@@H]1C[C@H]1[C@@H]3C[C@H](F)C4=CC(=O)C=C[C@]4(C)[C@@]3(F)[C@@H](O)C[C@@]12C [ONC0005095, fluocinonide vanos], the “% viability” value was 163.8%.
O=C(CCCN1CCC(n2c(O)nc3ccccc32)CC1)c1ccc(F)cc1 [ONC0002014, benperidol] was tested, and the “% viability” value was 79.93%.
CC(C)(O)c1coc(S(=O)(=O)NC(=O)Nc2c3c(cc4c2CCC4)CCC3)c1 [ONC0000990, mcc950] was tested, and the “% viability” value was 60.85%.
In the case of CC(=O)c1cc2c(o1)C(=O)c1ccccc1C2=O [ONC0001089, napabucasin], the “% viability” value was 62.94%.
S=C(S)N1CCCC1 [ONC0000813, pyrrolidinedithiocarbamate] was tested, and the “% viability” value was 63.17%.
With O=C1NS(=O)(=O)c2ccccc21 [ONC0003770, saccharin] the “% viability” value was 131.5%.
For NS(=O)(=O)c1cc2c(cc1Cl)NC(C1CC3C=CC1C3)NS2(=O)=O (stereo not shown) [ONC0002851, cyclothiazide], the “% viability” value was 88.9%.
For CN(c1ccccc1CNc1nc(Nc2ccc3c(c2)CC(=O)N3)ncc1C(F)(F)F)S(C)(=O)=O [ONC0002481, pf431396], the “% viability” value was 92.47%.
